From PMC2477742

System: STAT1 (cytokine-activated, in STAT1/3 heterodimer) + STAT3 (IL-6-activated, phosphorylated)
Assay: EMSA supershift
Details: NIH 3T3 nuclear extract, IL-6 30 min, complexes with STAT1, STAT3 or both supershifted or decreased; 13.3 mM Hepes pH 7.6, 0.7 mM EDTA, 3.3 mM MgCl2, 34 mM KCl, 1 mM DTT, 10% glycerol, 0.5 ug poly(dI-dC), on ice 15 min; 5% PAGE in 0.25x TBE; protein in an extract; label: 32P (alpha-32P dATP end-labelling)

“GATCTAGGGATTTCCGGGAAATGAAGCT (double strand) [M67 (c-sis-inducible element probe)]”: binds.

Construct, isoform or probe ends are uncertain for at least one entry. At least one result comes from cells or an extract, where the contact may be indirect. At least one verdict was read from the data and is not stated in words by the source.
